Experimental data as given in the supplement of paper PMC4635364.
Structures can show the parent of a compound that is named as a salt. The list shows a part of the results. This data set is noisy: repeats of one test often differ as much as different tests do.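 Human fetal ventral-midbrain neural progenitor line ReNCell VM, differentiated without mitogens. Images stained for doublecortin (early neurons) or tyrosine hydroxylase (dopaminergic neurons) were scored by blinded raters against untreated wells (0 = no change). Repeats and both raters were averaged, and compounds averaging 2 or higher were picked as hits for retesting.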 *1 amine or outer side, *2 acyl side, *3 side chain or, on linkers, in order; H or OH if unused. Where a SMILES comes first, the peptide text is derived from it. Bridges are numbered along the chain shown (N, C = ends). [ ]: non-standard residue; d: D form. The star is where a group is joined. X1 = NC1=N[C@@H]([C@H](N[*:1])C(=O)[*:2])C[C@H](O)N1; ΔAla(Z-3-ureido) = NC(=O)N/C=C(\N)C(=O)O; β3hOrn = NCCC[C@H](N)CC(=O)*; Dap = NC[C@H](N)C(=O)O

Key:
ReNCell VM [1] = assay: neuronal differentiation score (DCX+ cell fraction vs untreated, manual image score) (score (-3 to 3)); higher = more neuronal differentiation; conditions: 2 uM, 2 weeks
ReNCell VM [2] = assay: dopaminergic neuron differentiation score (TH+ cell fraction vs untreated, manual image score) (score (0 to 3)); higher = more TH+ dopaminergic neuron differentiation; conditions: 2 uM, 4 weeks, BDNF 10 ng/ml + GDNF 10 ng/ml

O=C1OC(CN2CCOCC2)CN1/N=C/c1ccc([N+](=O)[O-])o1 (stereo unspecified)
neuronal differentiation score (ReNCell VM [1]; library: Spectrum): inactive: 0 | dopaminergic neuron differentiation score (ReNCell VM [2]; library: Spectrum): active: 3

CC(=O)N(CC(O)CN(C(C)=O)c1c(I)c(C(=O)NCC(O)CO)c(I)c(C(=O)NCC(O)CO)c1I)c1c(I)c(C(=O)NCC(O)CO)c(I)c(C(=O)NCC(O)CO)c1I (stereo unspecified) [Iodixanol]
neuronal differentiation score (ReNCell VM [1]; library: Prestwick): inactive: 0 | dopaminergic neuron differentiation score (ReNCell VM [2]; library: Prestwick): inactive: 0

C=CC(C1=CC(=O)C(OC)=CC1=O)c1ccc(OC)cc1 (stereo unspecified)
neuronal differentiation score (ReNCell VM [1]; library: Spectrum): inactive: 0 | dopaminergic neuron differentiation score (ReNCell VM [2]; library: Spectrum): inactive: 0

CN[C@H](CC(=O)O)C(=O)O
neuronal differentiation score (ReNCell VM [1]; library: Spectrum): inactive: 0 | dopaminergic neuron differentiation score (ReNCell VM [2]; library: Spectrum): inactive: 0

C[C@]12C=CC(=O)C=C1CC[C@@H]1[C@@H]2[C@@H](O)C[C@@]2(C)[C@H]1CC[C@]2(O)C(=O)CO [Prednisolone]
neuronal differentiation score (ReNCell VM [1]; library: Prestwick): inactive: 0 | dopaminergic neuron differentiation score (ReNCell VM [2]; library: Prestwick): inactive: 0

Cn1ccnc1 [1-Methylimidazole]
neuronal differentiation score (ReNCell VM [1]; library: LOPAC): inactive: 0 | dopaminergic neuron differentiation score (ReNCell VM [2]; library: LOPAC): inactive: 0

CCn1cc(C(=O)O)c(=O)c2ccc(C)nc21 [Nalidixic acid sodium salt]
neuronal differentiation score (ReNCell VM [1]; library: Prestwick): inactive: 0 | dopaminergic neuron differentiation score (ReNCell VM [2]; library: Prestwick): inactive: 0

CCCc1nc(C)c2c(=O)nc(-c3cc(S(=O)(=O)N4CCN(CC)CC4)ccc3OCC)[nH]n12 [Vardenafil]
neuronal differentiation score (ReNCell VM [1]; library: Prestwick): inactive: 0 | dopaminergic neuron differentiation score (ReNCell VM [2]; library: Prestwick): inactive: 0

CC(C)[C@@H]1CC[C@@H](C)C[C@H]1O [L-menthol]
neuronal differentiation score (ReNCell VM [1]; library: Phytochemical): inactive: 0 | dopaminergic neuron differentiation score (ReNCell VM [2]; library: Phytochemical): inactive: 0

CC(=O)OCC(=O)[C@@]1(O)[C@H](C)C[C@H]2[C@@H]3CCC4=CC(=O)C=C[C@]4(C)[C@@]3(F)[C@@H](O)C[C@@]21C [Dexamethasone acetate]
neuronal differentiation score (ReNCell VM [1]; library: Prestwick): inactive: 0 | dopaminergic neuron differentiation score (ReNCell VM [2]; library: Prestwick): inactive: 0

O=C(COc1ccc(Cl)cc1)N1CCN(Cc2ccc3c(c2)OCO3)CC1 [Fipexide hydrochloride]
neuronal differentiation score (ReNCell VM [1]; library: Prestwick): inactive: 0 | dopaminergic neuron differentiation score (ReNCell VM [2]; library: Prestwick): inactive: 0

CCc1nn(CCCN2CCN(c3cccc(Cl)c3)CC2)c(=O)n1CCOc1ccccc1
neuronal differentiation score (ReNCell VM [1]; library: Spectrum): inactive: 0 | dopaminergic neuron differentiation score (ReNCell VM [2]; library: Spectrum): inactive: 0

O=C(O)c1ccc(S(=O)(=O)N(Cl)Cl)cc1
neuronal differentiation score (ReNCell VM [1]; library: Spectrum): inactive: 0 | dopaminergic neuron differentiation score (ReNCell VM [2]; library: Spectrum): inactive: 0

CC1(C)CC[C@]2(C(=O)O)CC[C@]3(C)C(=CC[C@@H]4[C@@]5(C)CC[C@H](O)[C@@](C)(CO)[C@@H]5CC[C@]43C)[C@@H]2C1
neuronal differentiation score (ReNCell VM [1]; library: Spectrum): inactive: 0 | dopaminergic neuron differentiation score (ReNCell VM [2]; library: Spectrum): inactive: 0

COc1cc(N)c(Cl)cc1C(=O)OCCCN1CCCCC1
neuronal differentiation score (ReNCell VM [1]; library: Tocriscreen): inactive: 0 | dopaminergic neuron differentiation score (ReNCell VM [2]; library: Tocriscreen): inactive: 0

CC(C)Cc1ccc([C@H](C)C(=O)O)cc1 [S(+)-Ibuprofen]
neuronal differentiation score (ReNCell VM [1]; library: LOPAC): inactive: 0 | dopaminergic neuron differentiation score (ReNCell VM [2]; library: LOPAC): inactive: 0

COc1cc2c(cc1OC)-c1cc3ccc(OC)c(OC)c3c[n+]1CC2
neuronal differentiation score (ReNCell VM [1]; library: Spectrum): inactive: 0 | dopaminergic neuron differentiation score (ReNCell VM [2]; library: Spectrum): inactive: 0

C=C1C[C@]23C[C@@]1(O)CC[C@H]2[C@@]12C=C[C@H](O)[C@@](C)(C(=O)O1)[C@H]2[C@@H]3C(=O)O
neuronal differentiation score (ReNCell VM [1]; library: Spectrum): inactive: 0 | dopaminergic neuron differentiation score (ReNCell VM [2]; library: Spectrum): inactive: 0

NCCC[C@H](N)CC(=O)N[C@H]1CNC(=O)[C@H]([C@H]2C[C@H](O)NC(N)=N2)NC(=O)/C(=C/NC(N)=O)NC(=O)[C@H](CO)NC(=O)[C@H](CO)NC1=O [Viomycin sulfate] (β3hOrn-[Dap]SS[ΔAla(Z-3-ureido)][X1]; lactam 1-C)
neuronal differentiation score (ReNCell VM [1]; library: Prestwick): inactive: 0 | dopaminergic neuron differentiation score (ReNCell VM [2]; library: Prestwick): inactive: 0

CS(=O)(=O)c1ccc(Cn2c3c(c4cc(F)cc(F)c42)CCCC3CC(=O)O)cc1 (stereo unspecified)
neuronal differentiation score (ReNCell VM [1]; library: Tocriscreen): inactive: 0 | dopaminergic neuron differentiation score (ReNCell VM [2]; library: Tocriscreen): inactive: 0

COc1ccc(OC)c(C(O)CNC(=O)CN)c1 (stereo unspecified) [Midodrine hydrochloride]
neuronal differentiation score (ReNCell VM [1]; library: Prestwick): inactive: 0 | dopaminergic neuron differentiation score (ReNCell VM [2]; library: Prestwick): inactive: 0

c1ccc(C2CN3CCSC3=N2)cc1 (single isomer, unassigned; (-)) [(-)-Tetramisole hydrochloride]
neuronal differentiation score (ReNCell VM [1]; library: LOPAC): inactive: 0 | dopaminergic neuron differentiation score (ReNCell VM [2]; library: LOPAC): inactive: 0

Cc1ccc(Nc2c(F)cccc2Cl)c(CC(=O)O)c1
neuronal differentiation score (ReNCell VM [1]; library: Spectrum): inactive: 0 | dopaminergic neuron differentiation score (ReNCell VM [2]; library: Spectrum): inactive: 0

Nc1ccc(S(=O)(=O)Nc2ccnn2-c2ccccc2)cc1
neuronal differentiation score (ReNCell VM [1]; library: Spectrum): inactive: 0 | dopaminergic neuron differentiation score (ReNCell VM [2]; library: Spectrum): inactive: 0

Nc1nc(SCc2ccc([N+](=O)[O-])cc2)c2ncn([C@@H]3O[C@H](CO)[C@H](O)C3O)c2n1 (stereo partly drawn) [S-(4-Nitrobenzyl)-6-thioguanosine]
neuronal differentiation score (ReNCell VM [1]; library: LOPAC): inactive: 0 | dopaminergic neuron differentiation score (ReNCell VM [2]; library: LOPAC): inactive: 0

CSc1nc(NC2CCCC2)c([N+](=O)[O-])c(NC2CCCC2)n1
neuronal differentiation score (ReNCell VM [1]; library: Tocriscreen): inactive: 0 | dopaminergic neuron differentiation score (ReNCell VM [2]; library: Tocriscreen): inactive: 0

CC(C)(C(=O)O)c1ccc(C(O)CCCN2CCC(C(O)(c3ccccc3)c3ccccc3)CC2)cc1 (stereo unspecified) [Fexofenadine HCl]
neuronal differentiation score (ReNCell VM [1]; library: Prestwick): inactive: 0 | dopaminergic neuron differentiation score (ReNCell VM [2]; library: Prestwick): inactive: 0

CC(Cc1ccc(O)c(O)c1)(NN)C(=O)O [(S)-(-)-Carbidopa]
neuronal differentiation score (ReNCell VM [1]; library: Tocriscreen): inactive: 0 | dopaminergic neuron differentiation score (ReNCell VM [2]; library: Tocriscreen): inactive: 0
